No constants are given. Whether binding was seen depends on the method and setting. Binding seen in cells or lysates may run through a third protein. Some entries that bind do so weakly or less than the wild type.
Biological target: T1, Hes1 expressed from pCDH-Hes1 in 293T cells (human) (UniProt Q14469)
T1 sequence: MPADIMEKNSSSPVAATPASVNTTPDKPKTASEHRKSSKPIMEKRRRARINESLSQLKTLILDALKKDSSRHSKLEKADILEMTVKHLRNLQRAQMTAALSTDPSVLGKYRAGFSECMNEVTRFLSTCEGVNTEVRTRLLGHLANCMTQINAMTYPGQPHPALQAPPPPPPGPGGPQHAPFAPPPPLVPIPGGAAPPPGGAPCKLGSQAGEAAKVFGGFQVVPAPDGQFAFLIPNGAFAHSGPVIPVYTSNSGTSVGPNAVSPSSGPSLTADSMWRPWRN
Assay: co-IP; lysates of co-transfected 293T cells (6μg of each plasmid, 48hpt); IE1-, Hes1- or Myc-directed IP, IB; normal IgG and vector controls

IE1 mutant Δ476–491 (pEYFP-IE1(Δ476–491)) (from UniProt P03169 1-475) (domain or fragment)
binding: binds

Reference: PMC5549770
